## Binding screen against folded nucleic acids

Targets, with sequences 5′ to 3′:
SAM-II: SAM-II riboswitch RNA pseudoknot, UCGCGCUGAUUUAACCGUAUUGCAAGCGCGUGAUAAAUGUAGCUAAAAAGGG. About 200 hits among about 21,000 compounds.
TPP: TPP riboswitch RNA three-way junction, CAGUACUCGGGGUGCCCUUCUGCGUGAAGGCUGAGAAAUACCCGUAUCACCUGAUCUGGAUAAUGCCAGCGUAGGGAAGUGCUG. About 160 hits among about 24,000 compounds.
PreQ1: PreQ1 riboswitch RNA pseudoknot, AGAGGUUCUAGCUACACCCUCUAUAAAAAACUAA. From B. subtilis. About 170 hits among about 24,000 compounds.

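Each compound is printed as two spots on a slide made to bind it covalently, so it has no test concentration; the read-out is fluorescence of the bound, labelled oligonucleotide. For the PreQ1, TPP and SAM-II riboswitches the laboratory earlier reported (doi:10.1038/s41467-019-09493-3) 1 µM RNA, 2 h, and a rule that included a mean Z-score above 3 (spot signal-to-noise against the whole library), a score well above that on a control array, and duplicate spots agreeing (coefficient of variation under 100). The data file gives only the calls; its cut-offs may differ, and compounds hitting several targets are kept. These are primary screening calls, not affinities; a compound without a hit may have attached poorly or may still bind in solution.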 Key: Y = hit, N = tested without a hit. The compounds are a random part of those screened. A dash means that no call is listed here.

| # | SMILES | SAM-II | TPP | PreQ1 |
|---|---|---|---|---|
| 1 | `CN1CCCN(C[C@@H]2CN(C(=O)c3cnccn3)C[C@@H]2CO)CC1` | N | N | N |
| 2 | `COCc1cc(CNC(C)Cc2ccccc2F)n[nH]1` (stereo not given) | N | N | N |
| 3 | `CC(c1nc(Cc2cccs2)nn1CCO)N1CCc2ccccc2C1` (stereo not given) | N | N | N |
| 4 | `Cc1ccc(Cl)c(OCC(O)CN2CCN(C(=O)c3ccccc3)CC2)c1` (stereo not given) | N | N | N |
| 5 | `Nc1nonc1-c1nc2ccccc2n1CC(=O)Nc1cccc(C(F)(F)F)c1` | - | N | N |
| 6 | `CCOC(=O)c1cnc2ccc(C(=O)OC)cc2c1NCc1cccnc1` | N | N | N |
| 7 | `Nc1c(-c2nc(-c3ccccc3)no2)nnn1-c1ccc(F)c(Cl)c1` | - | N | N |
| 8 | `Cc1ccc(OC2(C(=O)NC(C)Cc3ccncc3)CCNCC2)cc1` (stereo not given) | N | N | N |
| 9 | `Cc1cc(C)n2nc(NCc3cccc(Cl)c3)nc2n1` | - | N | N |
| 10 | `CN1CCN(C)C2(CCN(C(=O)c3cccc4c3NCCC4)CC2)C1` | N | N | N |
| 11 | `CC(C)(C)OC(=O)N[C@H]1CCCCC/C=C\[C@@H]2C[C@@]2(C(=O)NS(=O)(=O)C2CC2)NC(=O)[C@@H]2C[C@@H](OC(=O)N3Cc4cccc(F)c4C3)CN2C1=O` | N | N | N |
| 12 | `NCCc1nnc(SCC(=O)c2ccc(Cl)cc2)o1` | N | N | N |
| 13 | `CC(=O)c1sc(Nc2ccc(C)cc2)nc1C` | N | N | N |
| 14 | `Cc1ccc(CN2c3ccccc3C3=C(C(c4cccc(F)c4)C(C#N)=C(N)O3)S2(=O)=O)cc1` (stereo not given) | - | N | N |
| 15 | `CN(C)c1ccc(C(O)C(=O)c2cccs2)cc1` (stereo not given) | N | N | N |
| 16 | `COc1cc(CNCc2ccncc2)ccc1OCC(N)=O` | N | N | N |
| 17 | `N#CC(=C1Nc2ccccc2S1)c1ccnc(OCc2ccc(CN3CCOCC3)cc2)n1` | N | N | N |
| 18 | `O=C(Cn1cccnc1=O)N1CCC2(CC1)OCCCC2O` (stereo not given) | N | N | N |
| 19 | `COC(=O)c1ccc(C)c(NCc2ccc3c(c2)OCCO3)c1` | N | N | N |
| 20 | `N#CC1=C(N)OC2=C(CCC2=Cc2cccc(F)c2)C1c1cccc(F)c1` (stereo not given) | N | N | N |
| 21 | `OCCn1ccnc1-c1ccc(SC2CCCCC2)o1` | N | N | N |
| 22 | `COc1ccc(OC)c(NC(NC(=O)c2cccs2)C(=O)c2ccc(C)cc2)c1` (stereo not given) | N | N | N |
| 23 | `C=CCNc1ccccc1C(=O)N(C)Cc1nc(C)c[nH]1` | N | N | N |
| 24 | `CCc1cc2c(cc1-c1csc(C/C(N)=N/O)n1)C(C)(C)CCC2(C)C` | N | Y | N |
| 25 | `NC(=O)N1CCC(CC(=O)N2CCC([C@H]3c4ncc(Br)cc4CCc4cc(Cl)cc(Br)c43)CC2)CC1` | N | N | N |
| 26 | `N#CC1=C(N)OC2=C(C1c1ccc(F)cc1)S(=O)(=O)N(Cc1ccc(Cl)cc1)c1ccccc12` (stereo not given) | N | N | N |
| 27 | `COc1ccc(-c2nnc(N)s2)cc1` | N | N | Y |
| 28 | `CCc1nn(-c2ccccc2)c(N)c1C#N` | - | N | N |
| 29 | `OCc1nc2ccccc2n1Cc1c(F)cccc1Cl` | - | N | N |
| 30 | `O=C(Nc1ccc(Cl)c(C(F)(F)F)c1)N1[C@H]2CCNC[C@@H]1CC2` | N | N | N |
| 31 | `Cc1nc(N)nc(C)c1CC(=O)N1CCCN(Cc2cccs2)CC1` | N | N | N |
| 32 | `O=C(CN1CCOc2ccccc2C1)N1CCOC2(CNCCOC2)C1` (stereo not given) | N | N | N |
| 33 | `Clc1cccc2c(Nc3cccc(Br)c3)ccnc12` | N | N | N |
| 34 | `CCOC(=O)c1c(N)sc(-c2ccccc2)c1C` | N | N | N |
| 35 | `CCCCSc1nnc(-c2cc(Br)ccc2N)c(O)n1` | N | N | N |
| 36 | `COc1ccc(-c2noc(-c3cccnc3NC(C)c3ccc(C)cc3)n2)cc1` (stereo not given) | - | N | N |

Once more, the final 3:

SMILES,SAM-II,TPP,PreQ1
CCOC(=O)c1c(N)sc(-c2ccccc2)c1C,N,N,N
CCCCSc1nnc(-c2cc(Br)ccc2N)c(O)n1,N,N,N
COc1ccc(-c2noc(-c3cccnc3NC(C)c3ccc(C)cc3)n2)cc1 (stereo not given),-,N,N

From ROBIN, a set of small-molecule microarray screens (doi:10.1002/anie.202211358).